Experimental data: PubChem BioAssay AID504784 (Drosophila RNAi Screening Center, 2011)
In all, the deposit lists about 17,000 reagents; shown is an unselected part of those with a known target gene and a result. 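Each column is one replicate's B-score; the combined score over replicates was not deposited, so single values may mislead.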 A plus sign joins genes that one reagent is predicted to hit. Reagent sequences are not shown.

- Screen: 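Search for regulators of lipid droplet storage in oleate-fed fly cells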 (primary screen)
- Cells: Drosophila Kc167 embryonic cells
- Knock-down reagent: long dsRNA against Drosophila genes, about 250 ng dsRNA per well
- Timing: 4 days
- Conditions: cells fed 400 µM oleic acid bound to BSA
- Measurement: 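Cells imaged and segmented; ratio of lipid droplet area to nuclear area, log-transformed, then normalised as a B-score over the screen; higher means more stored lipid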
- Scale: droplet/nuclear area B-score: higher = more stored lipid (overstorage)

gene	amplicon	droplet/nuclear area B-score, replicate 1	droplet/nuclear area B-score, replicate 2	droplet/nuclear area B-score, replicate 3
IntS1 (Integrator 1)	DRSC04343	1.25	0.46	
nito (spenito)	DRSC05943	-2.99	-0.16	
CG33108	DRSC21613	0.427	-0.682	
PIG-O (Phosphatidylinositol glycan anchor biosynthesis class O)	DRSC06123	0.21	-0.00314	
bsd (back seat driver)	DRSC05953	-0.143	-1.62	
ppk15 (pickpocket 15)	DRSC14733	0.95	1.22	
Cftr (CF transmembrane conductance regulator)	DRSC15872	1.07	0.00949	
Acp1 (Adult cuticle protein 1)	DRSC01854	0.0472	0.0536	
KP78b + KP78a	DRSC23338	0.675	-0.107	
KP78b + KP78a	DRSC23341	-0.693	0.408	
CG5938	DRSC15923	0.489		
ppk26 (pickpocket 26)	DRSC10991	-0.251	-1.26	
CG9628	DRSC11082	-0.097	-0.835	0.917
rols (rolling pebbles)	DRSC09873	-1.36	-2.16	
rols (rolling pebbles)	DRSC10254	-0.0184	-0.237	
rols (rolling pebbles)	DRSC10536	0.161	0.869	
Lcp9 (Larval cuticle protein 9)	DRSC04287	0.266	0.334	
Usp20-33 (Ubiquitin specific protease 20/33)	DRSC07196	0.00377	-1.26	
Zasp52 (Z band alternatively spliced PDZ-motif protein 52)	DRSC06269	1.05	0.00766	
Zasp52 (Z band alternatively spliced PDZ-motif protein 52)	DRSC07121	0.496	-1.63	
CG7512	DRSC10863	-1.34	-1.84	
trio	DRSC07928	1.43	0.279	
trio	DRSC08527	2.61		
trio	DRSC08740	0.401	-1.09	
nAChRalpha3 (nicotinic Acetylcholine Receptor alpha3)	DRSC18800	-0.0202	0.441	
hep (hemipterous)	DRSC19839	-0.00192	0.029	-1.48
hep (hemipterous)	DRSC20337	0.261	0.265	-2.15
CG17249	DRSC08517	0.32	0.441	
TORIP (Torsin interacting protein)	DRSC10104	-0.0242	-0.0936	0.00987
comt (comatose)	DRSC20319	1.43	1.85	2.29
CG6254	DRSC16002	-0.246	-0.731	
CG3176 + CR18166 + CG32817	DRSC17271	0.00327	-4.23	
CG3176 + CR18166 + CG32817	DRSC17282	-0.167	-4.05	
CG3176 + CR18166 + CG32817	DRSC18288	-1.39	0.688	
Arl5 (ADP-ribosylation factor-like 5)	DRSC10785	1.14	-1.59	
CG16922 (retired record)	DRSC19758	0.781	0.316	0.552
CG16922 (retired record)	DRSC23140	-0.482	1.14	
CG18568	DRSC06768	-0.878	0.00512	
CG30291	DRSC03842	-1.84	-1.34	
heph (hephaestus)	DRSC14082	-0.235	-0.165	
heph (hephaestus)	DRSC14085	0.85	0.0599	
heph (hephaestus)	DRSC15436	1.53	0.901	
heph (hephaestus)	DRSC16783	-0.216	0.539	
CG13674	DRSC10033	1.89	-0.0825	
CG15394	DRSC00408	1.55	-0.432	
vret (vreteno)	DRSC15640	-1.33	0.00322	
CG1662	DRSC19754	4.26	1.21	1.63
CG7362	DRSC16236	-0.445	-0.454	-0.517
CG18545	DRSC15343	0.0127	-0.112	
Dnaaf6 (Dynein axonemal assembly factor 6)	DRSC10473	2.18	0.976	
Plap (Phospholipase A2 activator protein)	DRSC00678	-0.413	-0.497	
CG32816	DRSC17337	-0.449	-1.54	
CG5050	DRSC02807	0.0546	-0.0743	
Su(dx) (Suppressor of deltex)	DRSC00791	-2.42	-3.55	
COX6AL2 + Ir75d	DRSC10081	1.84	-0.541	
lectin-46Ca	DRSC06612	-0.0637	-0.0409	-0.75
yata	DRSC15408	-2.06	-0.239	
Marf1 (Meiosis regulator and mRNA stability factor 1)	DRSC03747	1.08	0.562	
Marf1 (Meiosis regulator and mRNA stability factor 1)	DRSC03774	0.0286	1.46	
Glo1 (Glyoxalase 1)	DRSC06657	0.147	0.448	
Lar (Leukocyte-antigen-related-like)	DRSC01707	2.57	-0.559	
Lar (Leukocyte-antigen-related-like)	DRSC03361	1.61	-0.066	
caps (capricious)	DRSC11333	2.56	0.702	
caps (capricious)	DRSC22224	1.97	1.51	
CG7755	DRSC07040	0.937	0.8	
CG13077	DRSC02181	-0.702	-1.02	
CG7264	DRSC10793	-0.43	1.19	
Tsp42En (Tetraspanin 42En)	DRSC06185	-0.297	1.93	
CG40006	DRSC03787	-2.22	-0.67	
CG40006	DRSC03809	-0.386	0.0759	
CG40006	DRSC03814	-0.0286	-0.806	
CG40006	DRSC03817	0.894	-1.98	
CG3611	DRSC04395	-0.00809	-0.249	
CG7497	DRSC10857	0.029	-1.3	1.85
Trpgamma (Transient receptor potential cation channel gamma)	DRSC03626	1.76	2.73	
tkv (thickveins)	DRSC03623	-0.349	0.483	
tkv (thickveins)	DRSC22606	0.27	0.0022	
l(1)G0289 (lethal (1) G0289)	DRSC18215	1.68	0.99	0.213
NimB4 (Nimrod B4)	DRSC01884	-0.0549	0.635	
CG18327	DRSC06722	1.14	1.93	
vas (retired record)	DRSC22007	4.19	-0.868	
CG1213	DRSC12191	-0.318	-0.0682	
CG4467	DRSC15585	0.301	-1.72	
koi (klaroid)	DRSC04980	1.44	-0.0868	
tor (torso)	DRSC07707	-0.163	0.195	
Rbbp5 + CG6434 (retired record)	DRSC10635	0.145	-1.2	
CG13029	DRSC09909	0.637	0.259	
mRpL48 (mitochondrial ribosomal protein L48)	DRSC00506	1.8	-1.85	
Smg5 (Smg5 nonsense mediated mRNA decay factor)	DRSC03124	-1.11	0.122	
CG34461	DRSC10767	-2.46	0.376	
Ser (Serrate)	DRSC16856	-0.117	0.289	
side-III (sidestep III)	DRSC12155	-1.11	-1.28	
side-III (sidestep III)	DRSC12263	2.24	0.225	
side-III (sidestep III)	DRSC12264	-1.58	-0.987	
CG31031 (retired record)	DRSC13964	-1.29	0.0554	
CG18213	DRSC15316	-1.13	-1.13	
Pp1-13C (Protein phosphatase 1 at 13C)	DRSC20269	-0.775	4.46	
Pp1-13C (Protein phosphatase 1 at 13C)	DRSC23305	0.00268	1.07	
CG34174	DRSC00101	0.275	-0.0452	
CG11911	DRSC00331	-0.793	-1.47	
CG34129	DRSC15960	-1.37	-1.66	
Nlp (Nucleoplasmin)	DRSC16759	-0.231		
scpr-A + scpr-C	DRSC15737	-1.08	0.0151	
alpha-Est6 (alpha-Esterase-6)	DRSC12618	-1.44	-0.0442	
CG16717	DRSC10221	-0.055	-0.433	
